According to the supplement of paper PMC10849652:
Some of the results follow.

Amino acid sequences for entries named in this document (tags omitted). A change or cut given only in a name is not applied to a line headed by its entry.
UniProt Q9P2D0: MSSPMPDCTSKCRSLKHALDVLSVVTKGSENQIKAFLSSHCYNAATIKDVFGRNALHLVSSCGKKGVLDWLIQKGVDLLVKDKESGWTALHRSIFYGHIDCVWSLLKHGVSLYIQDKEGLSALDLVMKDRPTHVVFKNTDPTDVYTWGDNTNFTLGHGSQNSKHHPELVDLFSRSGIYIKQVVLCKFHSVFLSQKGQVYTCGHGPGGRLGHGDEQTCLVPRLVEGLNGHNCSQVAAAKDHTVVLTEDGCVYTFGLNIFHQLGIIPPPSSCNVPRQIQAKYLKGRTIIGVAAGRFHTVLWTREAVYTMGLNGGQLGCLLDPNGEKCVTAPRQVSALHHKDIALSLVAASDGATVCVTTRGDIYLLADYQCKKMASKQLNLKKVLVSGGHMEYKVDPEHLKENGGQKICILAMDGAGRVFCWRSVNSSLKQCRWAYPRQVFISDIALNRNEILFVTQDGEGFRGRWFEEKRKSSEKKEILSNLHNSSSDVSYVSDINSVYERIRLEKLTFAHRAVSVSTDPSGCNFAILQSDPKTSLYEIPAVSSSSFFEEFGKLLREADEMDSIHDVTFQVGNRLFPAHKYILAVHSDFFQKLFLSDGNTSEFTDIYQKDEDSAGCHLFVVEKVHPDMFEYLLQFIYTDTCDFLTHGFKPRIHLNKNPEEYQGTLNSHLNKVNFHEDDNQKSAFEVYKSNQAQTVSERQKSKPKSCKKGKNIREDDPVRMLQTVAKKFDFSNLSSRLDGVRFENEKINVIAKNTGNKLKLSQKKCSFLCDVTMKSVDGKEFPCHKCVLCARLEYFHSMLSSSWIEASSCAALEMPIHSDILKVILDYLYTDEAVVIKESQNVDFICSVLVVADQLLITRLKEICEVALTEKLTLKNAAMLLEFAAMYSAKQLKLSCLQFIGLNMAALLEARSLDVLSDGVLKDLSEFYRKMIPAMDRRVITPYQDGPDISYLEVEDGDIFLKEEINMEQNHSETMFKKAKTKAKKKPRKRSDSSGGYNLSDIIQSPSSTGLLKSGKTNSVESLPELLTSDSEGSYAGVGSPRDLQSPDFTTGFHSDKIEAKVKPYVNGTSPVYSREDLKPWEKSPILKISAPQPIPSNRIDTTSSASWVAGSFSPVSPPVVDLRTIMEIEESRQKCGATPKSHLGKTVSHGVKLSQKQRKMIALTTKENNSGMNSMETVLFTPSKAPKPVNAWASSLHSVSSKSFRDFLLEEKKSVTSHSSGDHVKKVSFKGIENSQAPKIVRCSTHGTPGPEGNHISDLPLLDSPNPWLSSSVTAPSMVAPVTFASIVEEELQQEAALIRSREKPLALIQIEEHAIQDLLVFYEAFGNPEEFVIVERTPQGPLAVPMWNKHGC
UniProt H0YH80: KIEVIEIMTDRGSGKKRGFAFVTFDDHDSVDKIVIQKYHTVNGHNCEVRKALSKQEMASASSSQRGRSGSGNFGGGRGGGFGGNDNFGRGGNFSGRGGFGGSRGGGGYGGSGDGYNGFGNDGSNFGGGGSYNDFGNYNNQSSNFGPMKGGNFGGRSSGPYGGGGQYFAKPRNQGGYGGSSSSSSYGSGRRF
UniProt Q9Y241: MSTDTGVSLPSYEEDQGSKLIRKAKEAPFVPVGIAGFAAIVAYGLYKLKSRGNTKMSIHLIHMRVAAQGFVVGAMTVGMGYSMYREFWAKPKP
UniProt Q9NQG7: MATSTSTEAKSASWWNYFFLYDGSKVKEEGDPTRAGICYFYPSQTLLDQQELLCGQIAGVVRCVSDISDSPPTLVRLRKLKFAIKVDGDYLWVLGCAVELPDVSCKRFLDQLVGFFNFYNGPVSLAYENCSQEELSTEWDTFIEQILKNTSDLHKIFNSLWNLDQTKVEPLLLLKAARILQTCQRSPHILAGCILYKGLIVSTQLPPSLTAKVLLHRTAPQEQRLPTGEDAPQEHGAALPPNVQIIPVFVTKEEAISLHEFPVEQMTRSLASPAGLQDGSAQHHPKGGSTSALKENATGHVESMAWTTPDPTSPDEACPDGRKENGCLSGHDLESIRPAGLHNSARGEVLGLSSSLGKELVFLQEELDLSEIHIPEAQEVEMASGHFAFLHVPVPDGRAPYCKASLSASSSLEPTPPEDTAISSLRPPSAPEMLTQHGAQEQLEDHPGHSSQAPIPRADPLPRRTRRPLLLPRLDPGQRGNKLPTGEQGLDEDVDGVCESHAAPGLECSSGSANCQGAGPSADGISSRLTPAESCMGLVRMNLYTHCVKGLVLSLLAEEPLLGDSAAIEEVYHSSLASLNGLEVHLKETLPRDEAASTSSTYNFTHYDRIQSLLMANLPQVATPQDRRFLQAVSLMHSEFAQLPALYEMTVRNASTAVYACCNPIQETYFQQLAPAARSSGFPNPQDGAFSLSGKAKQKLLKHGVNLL
UniProt Q8TCT9: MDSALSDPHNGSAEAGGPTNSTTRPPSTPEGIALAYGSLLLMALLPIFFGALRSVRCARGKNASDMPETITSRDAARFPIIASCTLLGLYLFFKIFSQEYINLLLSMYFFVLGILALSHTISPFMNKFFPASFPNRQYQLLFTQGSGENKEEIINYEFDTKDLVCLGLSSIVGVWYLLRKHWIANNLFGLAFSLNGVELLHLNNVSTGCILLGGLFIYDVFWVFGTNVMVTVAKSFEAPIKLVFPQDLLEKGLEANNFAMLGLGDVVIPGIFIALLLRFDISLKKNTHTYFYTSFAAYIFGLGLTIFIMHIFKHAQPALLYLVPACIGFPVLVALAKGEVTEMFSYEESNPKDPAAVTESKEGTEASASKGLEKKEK
UniProt P41134: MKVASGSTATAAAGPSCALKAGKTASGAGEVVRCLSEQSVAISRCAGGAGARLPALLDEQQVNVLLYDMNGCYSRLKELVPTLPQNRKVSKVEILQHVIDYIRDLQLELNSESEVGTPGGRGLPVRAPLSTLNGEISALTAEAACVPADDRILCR
UniProt Q9NSB8: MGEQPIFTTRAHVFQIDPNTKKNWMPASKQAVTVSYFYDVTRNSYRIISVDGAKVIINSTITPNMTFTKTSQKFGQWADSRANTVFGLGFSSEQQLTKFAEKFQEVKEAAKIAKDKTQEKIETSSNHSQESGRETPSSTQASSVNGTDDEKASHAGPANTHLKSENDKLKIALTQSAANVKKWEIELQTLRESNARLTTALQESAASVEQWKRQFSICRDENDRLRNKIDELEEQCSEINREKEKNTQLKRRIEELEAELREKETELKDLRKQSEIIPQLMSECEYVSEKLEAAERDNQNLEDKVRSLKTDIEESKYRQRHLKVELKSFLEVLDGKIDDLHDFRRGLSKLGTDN
UniProt Q9UJC3, whole entry, looked up: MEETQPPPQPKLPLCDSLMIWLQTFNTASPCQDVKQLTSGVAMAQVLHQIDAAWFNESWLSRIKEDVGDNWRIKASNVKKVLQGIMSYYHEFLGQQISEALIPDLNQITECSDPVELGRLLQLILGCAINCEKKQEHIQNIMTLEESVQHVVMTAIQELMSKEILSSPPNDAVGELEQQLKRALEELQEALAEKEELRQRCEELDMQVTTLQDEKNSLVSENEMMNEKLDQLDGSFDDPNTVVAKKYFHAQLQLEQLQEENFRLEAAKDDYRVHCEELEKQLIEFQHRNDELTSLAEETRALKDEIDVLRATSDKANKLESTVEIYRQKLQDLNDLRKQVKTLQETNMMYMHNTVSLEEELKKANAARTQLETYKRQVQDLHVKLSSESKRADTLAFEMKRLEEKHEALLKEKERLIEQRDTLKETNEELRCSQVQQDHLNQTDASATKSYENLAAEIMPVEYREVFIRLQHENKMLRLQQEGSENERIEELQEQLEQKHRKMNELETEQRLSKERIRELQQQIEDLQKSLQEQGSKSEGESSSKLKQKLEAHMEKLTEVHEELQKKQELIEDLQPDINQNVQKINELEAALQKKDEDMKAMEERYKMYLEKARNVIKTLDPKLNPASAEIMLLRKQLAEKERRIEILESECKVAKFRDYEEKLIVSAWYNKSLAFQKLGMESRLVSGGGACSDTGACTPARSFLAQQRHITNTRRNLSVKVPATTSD
UniProt Q96EW2: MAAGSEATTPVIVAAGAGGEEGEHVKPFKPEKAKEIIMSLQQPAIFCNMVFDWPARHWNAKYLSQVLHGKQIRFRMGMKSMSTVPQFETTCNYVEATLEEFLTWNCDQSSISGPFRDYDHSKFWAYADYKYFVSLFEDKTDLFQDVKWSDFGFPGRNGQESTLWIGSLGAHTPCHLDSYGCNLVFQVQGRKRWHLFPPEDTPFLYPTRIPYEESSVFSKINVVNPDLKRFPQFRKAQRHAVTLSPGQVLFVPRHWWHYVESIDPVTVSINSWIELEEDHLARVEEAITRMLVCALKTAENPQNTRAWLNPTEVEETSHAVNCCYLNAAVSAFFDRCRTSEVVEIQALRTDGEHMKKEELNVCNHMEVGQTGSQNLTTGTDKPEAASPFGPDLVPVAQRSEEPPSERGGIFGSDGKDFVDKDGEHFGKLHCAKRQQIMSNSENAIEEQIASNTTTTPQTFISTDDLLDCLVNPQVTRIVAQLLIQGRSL
UniProt P28356, whole entry, looked up: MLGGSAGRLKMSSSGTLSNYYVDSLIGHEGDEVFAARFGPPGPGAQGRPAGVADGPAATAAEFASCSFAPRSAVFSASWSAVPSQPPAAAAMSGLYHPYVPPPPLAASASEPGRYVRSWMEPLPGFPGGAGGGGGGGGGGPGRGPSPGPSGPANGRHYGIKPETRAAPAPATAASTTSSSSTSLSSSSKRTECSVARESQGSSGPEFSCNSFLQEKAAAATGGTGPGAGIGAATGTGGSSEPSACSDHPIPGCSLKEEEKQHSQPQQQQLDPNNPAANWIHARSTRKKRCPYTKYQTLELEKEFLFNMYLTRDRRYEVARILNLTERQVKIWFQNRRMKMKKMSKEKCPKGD
UniProt P30939: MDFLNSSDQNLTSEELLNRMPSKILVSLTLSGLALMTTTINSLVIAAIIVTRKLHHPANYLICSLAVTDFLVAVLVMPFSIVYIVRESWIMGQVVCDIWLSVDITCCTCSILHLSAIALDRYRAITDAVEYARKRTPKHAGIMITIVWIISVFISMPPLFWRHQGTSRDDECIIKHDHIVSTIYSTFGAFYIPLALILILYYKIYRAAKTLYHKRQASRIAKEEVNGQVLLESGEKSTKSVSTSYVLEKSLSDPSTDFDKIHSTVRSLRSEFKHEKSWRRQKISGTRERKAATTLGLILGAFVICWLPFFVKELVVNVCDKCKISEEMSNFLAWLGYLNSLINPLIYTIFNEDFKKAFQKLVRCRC
UniProt P13747, whole entry, looked up: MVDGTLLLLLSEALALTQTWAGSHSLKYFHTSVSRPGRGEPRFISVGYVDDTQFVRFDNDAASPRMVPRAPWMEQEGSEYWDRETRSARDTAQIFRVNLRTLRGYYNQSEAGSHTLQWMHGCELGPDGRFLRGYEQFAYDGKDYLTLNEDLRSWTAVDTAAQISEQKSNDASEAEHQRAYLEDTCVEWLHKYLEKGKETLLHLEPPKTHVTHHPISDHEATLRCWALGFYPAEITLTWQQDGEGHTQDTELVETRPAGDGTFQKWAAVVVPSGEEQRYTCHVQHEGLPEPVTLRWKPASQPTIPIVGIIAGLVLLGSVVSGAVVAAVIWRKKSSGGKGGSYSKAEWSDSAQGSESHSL
UniProt Q96ED9: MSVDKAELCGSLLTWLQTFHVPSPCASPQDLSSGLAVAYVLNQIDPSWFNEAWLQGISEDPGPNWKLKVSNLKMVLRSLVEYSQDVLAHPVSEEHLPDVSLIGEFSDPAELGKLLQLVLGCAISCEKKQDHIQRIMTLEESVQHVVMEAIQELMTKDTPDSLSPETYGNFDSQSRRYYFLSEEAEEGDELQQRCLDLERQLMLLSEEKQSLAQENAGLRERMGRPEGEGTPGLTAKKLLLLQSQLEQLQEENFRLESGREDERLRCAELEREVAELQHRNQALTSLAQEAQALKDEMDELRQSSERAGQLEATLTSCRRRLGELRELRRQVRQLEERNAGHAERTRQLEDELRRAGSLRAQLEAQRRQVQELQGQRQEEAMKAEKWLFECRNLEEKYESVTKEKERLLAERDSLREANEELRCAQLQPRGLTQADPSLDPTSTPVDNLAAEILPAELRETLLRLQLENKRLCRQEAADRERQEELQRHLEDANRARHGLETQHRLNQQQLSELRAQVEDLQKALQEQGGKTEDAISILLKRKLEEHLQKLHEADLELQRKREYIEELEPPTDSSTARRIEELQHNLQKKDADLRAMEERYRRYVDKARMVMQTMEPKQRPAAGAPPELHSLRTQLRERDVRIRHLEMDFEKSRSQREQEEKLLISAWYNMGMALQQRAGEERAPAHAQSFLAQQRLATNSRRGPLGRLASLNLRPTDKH

These targets were tested with C1=CC=C(C=C1)C2=NC(=C(N2)C3=CC=NC=C3)C4=CC(=C(C=C4)Cl)O (assay: log2 fold change, soluble protein after heating vs DMSO (PISA); higher = thermal stabilisation; K562 cells, 10 uM, 30 min; active = over 0.2 and 3.5 SD of the protein, either way, in both replicates (recomputed)).
Procedure, shortened: (§1)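 K562 cells at 2×10^6 cells/mL were treated for 30 min with 10 μM compound, and aliquots were heated for 3 min over 48°C-58°C before pooling. Extraction used PBS with 0.5% NP-40 at 4°C, and soluble protein was the supernatant after 21,000xg for 90 min, measured by TMTpro 16plex LC-MS/MS with channel sums equalised. Thermal stability values, relative to control samples and from duplicates, are log2 fold changes.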

log2 fold change, inactive:
IBTK (UniProt Q9P2D0) -0.061
HNRNPA1 (UniProt H0YH80) 0.141
HNRNPK isoform 3 (UniProt P61978) -0.024
HIGD1A isoform 2 (UniProt Q9Y241) -0.061
HPS4 isoform 4 (UniProt Q9NQG7) -0.133
HM13 (UniProt Q8TCT9) -0.041
ID1 (UniProt P41134) 0.045

What follows are targets tested with C1=CC=C2C(=C1)C3=NNC4=CC=CC(=C43)C2=O in the same assay as above.
Procedure, shortened: as §1

log2 fold change, inactive:
IBTK (UniProt Q9P2D0) 0.006
HOMER2 (UniProt Q9NSB8) 0
HNRNPA1 (UniProt H0YH80) 0.147
HOOK1 (UniProt Q9UJC3) -0.134
HNRNPUL1 (UniProt M0R247) -0.419
HSPBAP1 (UniProt Q96EW2) 0.092
HOXD9 (UniProt P28356) -0.162
HUWE1 isoform 2 (UniProt Q7Z6Z7) 0.104
HM13 (UniProt Q8TCT9) -0.031
HTR1F (UniProt P30939) 0.021
HLA-E (UniProt P13747) -0.016

What follows are targets tested with C1CCN(C1)C(=O)NC2=CC=CC(=C2)NC3=NC=C(C(=N3)NCCC4=CN=CN4)Br in the same assay as above.
Procedure, shortened: as §1

log2 fold change, inactive:
IBTK (UniProt Q9P2D0) -0.098
HOMER2 (UniProt Q9NSB8) -0.089
HNRNPA1 (UniProt H0YH80) -0.058
HNRNPK isoform 3 (UniProt P61978) -0.027
HNRNPU isoform 2 (UniProt Q00839) -0.114
HMBS (UniProt F5H226) 0.032
HOOK2 (UniProt Q96ED9) -0.103
HUWE1, A0A087X1S3 0.059
HNRNPUL1 (UniProt M0R247) 0.471
HPS4 isoform 4 (UniProt Q9NQG7) 0.081
HM13 (UniProt Q8TCT9) 0.146
ID1 (UniProt P41134) -0.089
HSP90AA2P (UniProt Q14568) 0.044
HLA-E (UniProt P13747) -0.179

The targets below were run with C1CN(CCC1(CC2=CC=C(C=C2)Cl)N)C3=NC=NC4=C3C=CN4 in the same assay as above.
Procedure, shortened: as §1

log2 fold change, inactive:
IBTK (UniProt Q9P2D0) -0.108
HOMER2 (UniProt Q9NSB8) 0.13
HNRNPA1 (UniProt H0YH80) -0.311
HNRNPK isoform 3 (UniProt P61978) -0.052
HNRNPU isoform 2 (UniProt Q00839) -0.17
HMBS (UniProt F5H226) 0.05
HOOK2 (UniProt Q96ED9) 0.155
HUWE1, A0A087X1S3 -0.049
HNRNPUL1 (UniProt M0R247) 0.051
HPS4 isoform 4 (UniProt Q9NQG7) -0.074
HM13 (UniProt Q8TCT9) 0.063
ID1 (UniProt P41134) 0.061
HSP90AA2P (UniProt Q14568) -0.04
HLA-E (UniProt P13747) 0.121
